Publication PMC10204161
These are yes or no findings as the source states them, for the method shown. In cells and extracts the contact can be indirect. Some entries that bind do so weakly or less than the wild type.

Amino acid sequences for entries named in this document (tags omitted). Residues count along the entry.
UniProt P05161, residues 1-157: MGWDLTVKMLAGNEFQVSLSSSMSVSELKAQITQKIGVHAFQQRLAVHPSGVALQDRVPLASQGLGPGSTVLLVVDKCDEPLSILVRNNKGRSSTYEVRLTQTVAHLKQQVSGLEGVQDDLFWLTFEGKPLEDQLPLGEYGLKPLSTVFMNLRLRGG
UniProt Q9NZQ7, residues 19-290: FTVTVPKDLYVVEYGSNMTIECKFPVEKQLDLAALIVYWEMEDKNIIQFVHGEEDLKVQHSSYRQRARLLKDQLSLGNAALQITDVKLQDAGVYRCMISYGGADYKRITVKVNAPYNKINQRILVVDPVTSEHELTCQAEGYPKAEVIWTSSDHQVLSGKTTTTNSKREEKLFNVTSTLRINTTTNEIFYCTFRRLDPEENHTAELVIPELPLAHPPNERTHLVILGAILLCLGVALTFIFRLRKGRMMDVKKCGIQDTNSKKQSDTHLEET

Target: Interferon-stimulated gene 15 (ISG15) (human) (UniProt P05161)
Test: co-IP; 4 ug anti-ISG15 antibody or anti-IgG antibody added to cell lysates, 12 h at 4 C; precipitate resolved by SDS-PAGE and probed with anti-PD-L1 antibody

Substance: Programmed cell death-ligand 1 (PD-L1) (from UniProt Q9NZQ7 19-290)
- binding: binds
